The supplement of paper PMC10849652
This is one part of the list.

By UniProt entry, the sequences of proteins in these tests, tags left out. Where a name states a change or a piece, a line headed by the entry shows the natural chain unless it says otherwise.
UniProt Q8IYS2: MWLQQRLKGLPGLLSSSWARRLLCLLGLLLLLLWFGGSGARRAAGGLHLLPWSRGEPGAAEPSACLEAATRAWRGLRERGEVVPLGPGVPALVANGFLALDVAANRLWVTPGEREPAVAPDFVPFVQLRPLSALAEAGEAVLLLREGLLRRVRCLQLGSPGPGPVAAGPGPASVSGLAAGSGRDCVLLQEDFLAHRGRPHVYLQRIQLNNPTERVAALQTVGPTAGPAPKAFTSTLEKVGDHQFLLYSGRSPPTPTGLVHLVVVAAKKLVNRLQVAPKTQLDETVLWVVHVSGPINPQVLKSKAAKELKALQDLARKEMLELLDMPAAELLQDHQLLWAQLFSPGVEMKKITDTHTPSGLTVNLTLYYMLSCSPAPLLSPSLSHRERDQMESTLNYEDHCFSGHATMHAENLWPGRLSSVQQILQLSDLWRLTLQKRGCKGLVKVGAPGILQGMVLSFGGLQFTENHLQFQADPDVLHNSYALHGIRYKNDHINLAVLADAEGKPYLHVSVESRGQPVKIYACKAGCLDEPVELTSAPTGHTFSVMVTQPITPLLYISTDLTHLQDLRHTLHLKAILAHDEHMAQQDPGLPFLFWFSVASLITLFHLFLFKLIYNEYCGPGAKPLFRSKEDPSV
UniProt Q8N371: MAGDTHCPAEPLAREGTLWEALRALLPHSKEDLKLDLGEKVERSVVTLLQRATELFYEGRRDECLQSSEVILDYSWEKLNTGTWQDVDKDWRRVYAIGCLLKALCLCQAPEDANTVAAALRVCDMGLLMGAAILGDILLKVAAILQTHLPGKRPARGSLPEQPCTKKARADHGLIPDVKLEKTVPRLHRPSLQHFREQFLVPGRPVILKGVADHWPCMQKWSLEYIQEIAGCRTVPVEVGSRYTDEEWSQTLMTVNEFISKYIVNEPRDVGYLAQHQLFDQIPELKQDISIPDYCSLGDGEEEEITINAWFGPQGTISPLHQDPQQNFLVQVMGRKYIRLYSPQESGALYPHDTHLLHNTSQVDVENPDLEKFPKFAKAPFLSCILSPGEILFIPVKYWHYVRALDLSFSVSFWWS
UniProt Q7L273: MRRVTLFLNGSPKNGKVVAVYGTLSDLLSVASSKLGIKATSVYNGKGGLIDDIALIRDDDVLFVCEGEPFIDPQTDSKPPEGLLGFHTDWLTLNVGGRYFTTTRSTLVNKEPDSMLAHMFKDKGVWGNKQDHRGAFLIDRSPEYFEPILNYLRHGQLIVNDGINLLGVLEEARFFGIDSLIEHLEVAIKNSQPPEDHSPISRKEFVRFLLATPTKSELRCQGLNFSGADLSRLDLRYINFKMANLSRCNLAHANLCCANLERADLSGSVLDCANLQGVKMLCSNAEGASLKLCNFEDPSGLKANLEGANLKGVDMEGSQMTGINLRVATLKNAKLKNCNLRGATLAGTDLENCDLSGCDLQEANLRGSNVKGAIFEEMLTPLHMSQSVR
UniProt P17535: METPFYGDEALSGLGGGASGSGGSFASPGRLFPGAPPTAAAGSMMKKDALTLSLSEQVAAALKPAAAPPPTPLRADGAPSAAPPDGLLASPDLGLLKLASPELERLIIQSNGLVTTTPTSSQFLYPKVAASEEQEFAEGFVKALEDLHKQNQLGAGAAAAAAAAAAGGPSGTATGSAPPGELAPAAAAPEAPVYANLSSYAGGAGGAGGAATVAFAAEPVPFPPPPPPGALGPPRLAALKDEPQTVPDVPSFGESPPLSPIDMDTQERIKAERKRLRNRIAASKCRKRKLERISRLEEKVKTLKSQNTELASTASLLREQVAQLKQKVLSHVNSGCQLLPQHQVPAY
UniProt Q14974, whole entry, looked up: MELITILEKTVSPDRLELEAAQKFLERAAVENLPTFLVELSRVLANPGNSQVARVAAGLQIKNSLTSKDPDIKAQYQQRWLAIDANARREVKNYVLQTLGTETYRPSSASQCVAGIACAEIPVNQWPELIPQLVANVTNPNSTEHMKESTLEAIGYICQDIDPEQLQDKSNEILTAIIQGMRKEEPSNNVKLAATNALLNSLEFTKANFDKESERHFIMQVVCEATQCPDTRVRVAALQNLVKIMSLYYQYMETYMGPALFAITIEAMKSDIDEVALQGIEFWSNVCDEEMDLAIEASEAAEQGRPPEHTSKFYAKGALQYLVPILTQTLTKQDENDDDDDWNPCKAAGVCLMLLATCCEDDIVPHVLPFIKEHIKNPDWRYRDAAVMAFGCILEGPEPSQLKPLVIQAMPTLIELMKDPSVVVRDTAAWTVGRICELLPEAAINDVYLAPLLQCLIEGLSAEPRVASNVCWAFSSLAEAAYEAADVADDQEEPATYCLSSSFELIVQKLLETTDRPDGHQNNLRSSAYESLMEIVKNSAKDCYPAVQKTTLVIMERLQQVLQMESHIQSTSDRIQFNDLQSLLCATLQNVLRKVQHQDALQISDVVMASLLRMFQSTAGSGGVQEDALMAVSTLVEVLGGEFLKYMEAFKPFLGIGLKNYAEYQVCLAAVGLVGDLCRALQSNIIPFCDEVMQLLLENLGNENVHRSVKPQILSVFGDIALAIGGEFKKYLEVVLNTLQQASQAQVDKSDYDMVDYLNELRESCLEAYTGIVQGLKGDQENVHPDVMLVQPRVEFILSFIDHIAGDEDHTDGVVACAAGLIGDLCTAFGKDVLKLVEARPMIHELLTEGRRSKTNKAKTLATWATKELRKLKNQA
UniProt Q9BVA0, whole entry, looked up: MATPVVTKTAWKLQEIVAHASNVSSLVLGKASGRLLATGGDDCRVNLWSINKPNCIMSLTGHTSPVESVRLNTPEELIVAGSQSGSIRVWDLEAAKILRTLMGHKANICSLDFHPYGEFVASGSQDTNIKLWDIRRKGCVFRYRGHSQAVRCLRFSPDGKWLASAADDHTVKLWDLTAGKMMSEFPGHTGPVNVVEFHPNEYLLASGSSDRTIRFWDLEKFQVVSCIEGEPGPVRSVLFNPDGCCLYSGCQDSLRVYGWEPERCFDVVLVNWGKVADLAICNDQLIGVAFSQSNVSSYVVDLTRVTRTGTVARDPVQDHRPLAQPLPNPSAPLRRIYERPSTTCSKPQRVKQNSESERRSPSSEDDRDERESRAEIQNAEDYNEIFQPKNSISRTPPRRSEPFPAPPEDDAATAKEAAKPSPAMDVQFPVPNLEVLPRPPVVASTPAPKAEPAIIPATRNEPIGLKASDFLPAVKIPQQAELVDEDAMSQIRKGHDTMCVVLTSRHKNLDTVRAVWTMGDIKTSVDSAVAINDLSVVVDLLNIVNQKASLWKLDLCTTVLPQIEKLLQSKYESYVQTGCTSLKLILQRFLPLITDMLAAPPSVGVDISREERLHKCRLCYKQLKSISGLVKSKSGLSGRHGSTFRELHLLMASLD
UniProt Q7LBC6: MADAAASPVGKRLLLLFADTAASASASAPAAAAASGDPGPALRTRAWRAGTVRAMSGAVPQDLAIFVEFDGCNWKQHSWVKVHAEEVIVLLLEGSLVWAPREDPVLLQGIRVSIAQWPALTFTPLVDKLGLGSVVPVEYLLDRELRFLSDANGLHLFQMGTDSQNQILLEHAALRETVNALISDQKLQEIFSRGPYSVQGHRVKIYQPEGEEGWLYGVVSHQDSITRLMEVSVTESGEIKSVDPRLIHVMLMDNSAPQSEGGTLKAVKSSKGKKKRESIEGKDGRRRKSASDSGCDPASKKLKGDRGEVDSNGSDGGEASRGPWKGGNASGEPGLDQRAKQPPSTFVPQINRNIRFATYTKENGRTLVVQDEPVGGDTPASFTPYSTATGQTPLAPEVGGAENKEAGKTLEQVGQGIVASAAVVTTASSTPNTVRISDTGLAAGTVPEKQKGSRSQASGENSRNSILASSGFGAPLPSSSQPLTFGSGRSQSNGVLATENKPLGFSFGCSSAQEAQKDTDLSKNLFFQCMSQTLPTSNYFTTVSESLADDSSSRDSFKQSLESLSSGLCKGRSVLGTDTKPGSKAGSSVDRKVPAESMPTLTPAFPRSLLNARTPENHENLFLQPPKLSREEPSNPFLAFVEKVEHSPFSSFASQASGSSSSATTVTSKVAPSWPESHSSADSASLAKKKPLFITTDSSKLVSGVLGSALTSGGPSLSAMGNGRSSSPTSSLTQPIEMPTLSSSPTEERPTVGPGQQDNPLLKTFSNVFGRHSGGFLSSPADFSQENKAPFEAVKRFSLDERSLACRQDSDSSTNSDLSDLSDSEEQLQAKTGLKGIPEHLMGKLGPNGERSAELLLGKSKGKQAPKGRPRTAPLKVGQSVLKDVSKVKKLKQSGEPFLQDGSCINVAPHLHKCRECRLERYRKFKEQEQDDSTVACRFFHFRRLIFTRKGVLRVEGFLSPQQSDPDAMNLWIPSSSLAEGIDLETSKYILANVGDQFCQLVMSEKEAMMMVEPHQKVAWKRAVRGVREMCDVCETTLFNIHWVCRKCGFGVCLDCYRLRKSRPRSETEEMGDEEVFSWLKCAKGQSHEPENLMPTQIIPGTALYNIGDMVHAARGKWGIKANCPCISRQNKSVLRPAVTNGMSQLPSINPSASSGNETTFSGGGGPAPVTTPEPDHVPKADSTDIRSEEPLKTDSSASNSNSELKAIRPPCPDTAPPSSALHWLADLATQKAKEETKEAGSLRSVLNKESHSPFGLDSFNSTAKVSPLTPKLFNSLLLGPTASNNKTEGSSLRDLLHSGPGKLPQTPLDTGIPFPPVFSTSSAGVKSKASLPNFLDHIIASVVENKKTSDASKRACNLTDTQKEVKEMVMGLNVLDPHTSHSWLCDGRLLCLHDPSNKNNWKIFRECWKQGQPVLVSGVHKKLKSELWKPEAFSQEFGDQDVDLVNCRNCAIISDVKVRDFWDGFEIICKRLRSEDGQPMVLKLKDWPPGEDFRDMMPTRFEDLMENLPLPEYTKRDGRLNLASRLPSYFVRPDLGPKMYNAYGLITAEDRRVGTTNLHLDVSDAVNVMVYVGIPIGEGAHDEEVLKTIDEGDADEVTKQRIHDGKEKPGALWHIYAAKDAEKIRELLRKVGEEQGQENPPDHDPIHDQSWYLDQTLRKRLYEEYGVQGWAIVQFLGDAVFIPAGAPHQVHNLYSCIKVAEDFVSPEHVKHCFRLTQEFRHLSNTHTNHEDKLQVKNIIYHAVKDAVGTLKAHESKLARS
UniProt Q8NC54: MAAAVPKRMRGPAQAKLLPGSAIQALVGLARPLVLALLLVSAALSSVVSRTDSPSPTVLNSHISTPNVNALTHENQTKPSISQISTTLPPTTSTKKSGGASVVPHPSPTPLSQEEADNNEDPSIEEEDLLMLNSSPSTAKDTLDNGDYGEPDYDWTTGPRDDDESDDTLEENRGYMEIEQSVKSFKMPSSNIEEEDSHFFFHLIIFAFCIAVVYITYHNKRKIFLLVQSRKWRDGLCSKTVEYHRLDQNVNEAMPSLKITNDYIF
UniProt Q07666, whole entry, looked up: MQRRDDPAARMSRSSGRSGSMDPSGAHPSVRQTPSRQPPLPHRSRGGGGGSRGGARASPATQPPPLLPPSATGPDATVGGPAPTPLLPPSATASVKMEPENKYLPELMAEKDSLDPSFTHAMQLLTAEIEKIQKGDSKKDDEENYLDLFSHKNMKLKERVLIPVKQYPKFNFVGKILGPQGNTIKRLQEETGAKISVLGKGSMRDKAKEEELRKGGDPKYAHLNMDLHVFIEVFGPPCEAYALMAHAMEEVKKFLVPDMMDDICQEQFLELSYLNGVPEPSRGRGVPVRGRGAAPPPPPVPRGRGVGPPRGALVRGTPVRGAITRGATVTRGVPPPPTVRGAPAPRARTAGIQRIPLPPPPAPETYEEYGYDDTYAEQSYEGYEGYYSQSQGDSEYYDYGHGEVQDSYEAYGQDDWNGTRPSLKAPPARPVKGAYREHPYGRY
UniProt Q96EK5: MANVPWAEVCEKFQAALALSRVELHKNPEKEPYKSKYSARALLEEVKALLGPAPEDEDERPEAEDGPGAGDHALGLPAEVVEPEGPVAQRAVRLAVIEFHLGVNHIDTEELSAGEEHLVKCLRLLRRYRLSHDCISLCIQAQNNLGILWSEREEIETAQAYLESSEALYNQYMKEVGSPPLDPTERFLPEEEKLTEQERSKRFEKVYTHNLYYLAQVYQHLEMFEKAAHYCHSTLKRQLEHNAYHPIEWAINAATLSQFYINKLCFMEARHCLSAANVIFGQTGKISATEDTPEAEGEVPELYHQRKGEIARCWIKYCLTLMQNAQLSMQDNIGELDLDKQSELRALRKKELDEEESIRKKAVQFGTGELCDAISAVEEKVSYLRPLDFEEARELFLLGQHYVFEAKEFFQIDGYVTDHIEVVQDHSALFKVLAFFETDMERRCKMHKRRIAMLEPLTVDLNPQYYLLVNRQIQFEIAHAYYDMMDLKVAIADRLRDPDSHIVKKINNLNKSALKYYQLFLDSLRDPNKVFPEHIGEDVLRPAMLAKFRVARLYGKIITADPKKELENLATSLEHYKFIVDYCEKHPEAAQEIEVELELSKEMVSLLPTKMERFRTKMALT
UniProt Q96AT1: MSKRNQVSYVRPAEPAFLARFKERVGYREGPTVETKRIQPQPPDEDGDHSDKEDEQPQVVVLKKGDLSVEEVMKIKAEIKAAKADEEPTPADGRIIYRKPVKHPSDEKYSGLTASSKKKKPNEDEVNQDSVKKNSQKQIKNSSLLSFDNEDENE

How the values were obtained:
Experiment in all cases: log2 fold change, soluble protein after heating vs DMSO (PISA); higher = thermal stabilisation; K562 cells, 10 uM, 30 min; active = over 0.2 and 3.5 SD of the protein, either way, in both replicates (recomputed)
[1] = compound: NC(=O)Nc1cc(-c2cccc(F)c2)sc1C(=O)N[C@H]1CCCNC1
In short: (§1)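 K562 cells at 2×10^6 cells/mL were treated with 10 μM compound for 30 min. Aliquots were heated for 3 min across 48°C-58°C, pooled, and extracted in PBS with 0.5% NP-40 at 4°C; soluble protein was the supernatant after 21,000xg for 90 min. Soluble protein was quantified by TMTpro 16plex LC-MS/MS with channel sums equalised, and reported as log2 fold change in thermal stability against DMSO controls, with values from duplicates.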

[2] = compound: NC(=O)c1cnc(N[C@@H]2CCCC[C@@H]2N)nc1Nc1cccc(-n2nccn2)c1
In short: as §1

[3] = compound: NC1(c2ccc(-c3nc4ccn5c(=O)[nH]nc5c4cc3-c3ccccc3)cc2)CCC1
In short: as §1

[4] = compound: NCC(=O)Nc1ccc(-n2nc(C(F)(F)F)cc2-c2ccc3c(ccc4ccccc43)c2)cc1
In short: as §1

entinostat = compound: Nc1ccccc1NC(=O)c1ccc(CNC(=O)OCc2cccnc2)cc1 [entinostat]
In short: as §1

vorinostat = compound: O=C(CCCCCCC(=O)Nc1ccccc1)NO [vorinostat]
In short: as §1

citarinostat = compound: O=C(CCCCCCNC(=O)c1cnc(N(c2ccccc2)c2ccccc2Cl)nc1)NO [citarinostat]
In short: as §1

silmitasertib = compound: O=C(O)c1ccc2c(c1)nc(Nc1cccc(Cl)c1)c1ccncc12 [silmitasertib]
In short: as §1

[5] = compound: O=C1NC(=O)C(c2cnc3ccccn23)=C1c1cn2c3c(cc(F)cc13)CN(C(=O)N1CCCCC1)CC2
In short: as §1

[6] = compound: c1cc(OCCN2CCCCC2)cc(-c2n[nH]c3ccc(-c4nnc[nH]4)cc23)c1
In short: as §1

Target | log2 fold change [1] | log2 fold change [2] | log2 fold change [3] | log2 fold change [4] | log2 fold change (entinostat) | log2 fold change (vorinostat) | log2 fold change (citarinostat) | log2 fold change (silmitasertib) | log2 fold change [5] | log2 fold change [6]
KHDC4 (UniProt Q7Z7F0) | inactive: -0.017 | inactive: -0.003 | inactive: -0.078 | inactive: -0.034 | inactive: 0.009 | inactive: 0.028 | inactive: 0.08 | inactive: 0.01 | inactive: -0.155 | inactive: -0.052
KIAA2013 isoform 2 (UniProt Q8IYS2) | inactive: -0.085 | inactive: -0.034 | inactive: -0.069 | inactive: -0.03 | inactive: -0.058 | inactive: 0.036 | inactive: 0.022 | inactive: 0.029 | inactive: -0.035 | inactive: 0.03
KDM8 isoform 3 (UniProt Q8N371) | inactive: 0.039 | inactive: -0.076 | inactive: -0.119 | inactive: 0.004 | inactive: -0.042 | inactive: 0.162 | inactive: 0.021 | inactive: 0.035 | inactive: -0.013 | inactive: -0.028
KCTD9 (UniProt Q7L273) | inactive: -0.026 | inactive: 0.008 | inactive: -0.011 | inactive: 0.038 | inactive: -0.015 | inactive: 0.008 | inactive: 0.044 | inactive: 0.008 | inactive: -0.1 | inactive: -0.113
KPNA1 (UniProt P52294) | inactive: -0.02 | inactive: -0.014 | inactive: -0.047 | inactive: -0.058 | inactive: 0.099 | inactive: 0.036 | inactive: 0.166 | inactive: 0.088 | inactive: 0.064 | inactive: -0.037
KDM5C (UniProt P41229) | inactive: -0.006 | inactive: 0 | inactive: 0.005 | inactive: -0.248 | inactive: 0.145 | inactive: 0.018 | inactive: 0.13 | inactive: -0.131 | inactive: -0.029 | inactive: 0.096
KHSRP (UniProt Q92945) | inactive: -0.016 | inactive: -0.021 | inactive: 0.026 | inactive: -0.007 | inactive: -0.022 | inactive: -0.026 | inactive: -0.062 | inactive: -0.011 | inactive: 0.004 | inactive: 0.007
JUND (UniProt P17535) | inactive: -0.067 | inactive: -0.109 | inactive: 0.056 | inactive: 0.09 | inactive: -0.022 | inactive: -0.078 | inactive: -0.065 | inactive: 0.024 | inactive: -0.038 | inactive: -0.04
KIF23 (UniProt Q02241) | inactive: -0.022 | inactive: -0.048 | inactive: 0.007 | inactive: -0.082 | inactive: -0.062 | inactive: 0.199 | inactive: 0.047 | inactive: -0.034 | inactive: 0.078 | inactive: -0.075
KAZN isoform 3 (UniProt Q674X7) | inactive: 0.017 | inactive: 0.04 | inactive: -0.017 | inactive: -0.015 | inactive: 0.024 | inactive: -0.069 | inactive: 0.015 | inactive: -0.003 | inactive: -0.075 | inactive: 0.016
KPNB1 (UniProt Q14974) | inactive: 0.025 | inactive: -0.087 | inactive: -0.073 | inactive: -0.037 | inactive: 0.055 | inactive: 0.038 | inactive: 0.097 | inactive: 0.099 | inactive: 0.068 | inactive: -0.059
KATNB1 (UniProt Q9BVA0) | inactive: -0.001 | inactive: 0 | inactive: -0.09 | inactive: -0.112 | inactive: 0.04 | inactive: 0.163 | inactive: 0.034 | inactive: 0.013 | inactive: 0.04 | inactive: -0.144
IWS1 (UniProt Q96ST2) | inactive: -0.049 | inactive: 0.034 | inactive: -0.028 | inactive: -0.171 | inactive: 0.012 | inactive: -0.008 | inactive: -0.059 | inactive: 0.054 | inactive: -0.032 | inactive: 0
KLC2 (UniProt Q9H0B6) | inactive: -0.149 | inactive: -0.084 | inactive: -0.134 | inactive: -0.044 | inactive: 0.031 | inactive: 0.044 | inactive: 0.061 | inactive: 0.063 | inactive: 0.007 | inactive: -0.082
JPT2 isoform 3 (UniProt Q9H910) | inactive: 0.051 | inactive: -0.004 | inactive: 0.024 | inactive: 0.007 | inactive: -0.022 | inactive: -0.039 | inactive: -0.001 | inactive: -0.041 | inactive: -0.028 | inactive: 0.047
JUNB (UniProt P17275) | inactive: -0.146 | inactive: -0.282 | inactive: 0.218 | inactive: -0.051 | inactive: -0.086 | inactive: 0.058 | inactive: -0.069 | inactive: 0.096 | inactive: -0.027 | inactive: 0.017
KLHDC4 (UniProt Q8TBB5) | inactive: 0.013 | inactive: -0.006 | inactive: 0.224 | inactive: -0.105 | inactive: -0.055 | inactive: -0.014 | inactive: 0.042 | inactive: -0.003 | inactive: 0.125 | inactive: -0.036
KDM3B (UniProt Q7LBC6) | inactive: -0.051 | inactive: -0.033 | inactive: -0.114 | inactive: -0.088 | inactive: 0.027 | inactive: 0.069 | inactive: 0.098 | inactive: 0.056 | inactive: -0.064 | inactive: -0.023
KCT2 (UniProt Q8NC54) | inactive: 0.047 | inactive: -0.029 | active: -0.378 | inactive: 0.013 | inactive: -0.054 | inactive: 0.022 | inactive: 0.05 | inactive: 0.035 | inactive: 0.047 | inactive: -0.02
KPNA4 (UniProt O00629) | inactive: -0.06 | inactive: -0.054 | inactive: -0.072 | inactive: -0.053 | inactive: -0.01 | inactive: 0.019 | inactive: 0.051 | inactive: 0.065 | inactive: -0.017 | inactive: -0.111
KHDRBS1 (UniProt Q07666) | inactive: -0.013 | inactive: -0.038 | inactive: -0.009 | inactive: -0.034 | inactive: -0.025 | inactive: 0.037 | inactive: 0.099 | inactive: 0.018 | inactive: 0.039 | inactive: -0.064
KIFBP (UniProt Q96EK5) | inactive: 0.002 | inactive: -0.166 | inactive: -0.117 | inactive: -0.091 | inactive: 0.059 | inactive: 0.088 | inactive: 0.043 | inactive: -0.02 | inactive: 0.024 | inactive: -0.056
JPT1 (UniProt Q9UK76) | inactive: 0.047 | inactive: 0.059 | inactive: 0.101 | inactive: 0.038 | inactive: -0.015 | inactive: -0.041 | inactive: 0.029 | inactive: -0.02 | inactive: 0.011 | inactive: 0.032
KIF13A (UniProt Q9H1H9) | inactive: -0.049 | inactive: -0.008 | inactive: -0.078 | inactive: -0.064 | inactive: 0.04 | inactive: -0.178 | inactive: -0.041 | inactive: 0 | inactive: -0.005 | inactive: -0.061
JAGN1 (UniProt Q8N5M9) | inactive: 0.013 | inactive: -0.032 | inactive: 0.015 | inactive: -0.062 | inactive: 0.026 | inactive: -0.207 | inactive: -0.022 | inactive: 0.038 | inactive: -0.044 | inactive: -0.027
KRTCAP2 isoform 2 (UniProt Q8N6L1) | inactive: 0.001 | inactive: -0.045 | inactive: -0.044 | inactive: 0.047 | inactive: -0.111 | inactive: 0.045 | inactive: 0.015 | inactive: 0.037 | inactive: 0.05 | inactive: -0.114
KIAA1143 (UniProt Q96AT1) | inactive: -0.094 | inactive: -0.139 | inactive: 0.026 | inactive: -0.006 | inactive: -0.079 | inactive: 0 | inactive: -0.053 | inactive: 0.007 | inactive: -0.275 | inactive: -0.005

A few values from the entries so far.
Under log2 fold change [4], JUND (UniProt P17535) has the entry inactive: 0.09
Under log2 fold change (entinostat), KRTCAP2 isoform 2 (UniProt Q8N6L1) has the entry inactive: -0.111

Record cards, from the list above. Values in the order: log2 fold change [1]	log2 fold change [2]	log2 fold change [3]	log2 fold change [4]	log2 fold change (entinostat)	log2 fold change (vorinostat)	log2 fold change (citarinostat)	log2 fold change (silmitasertib)	log2 fold change [5]	log2 fold change [6]
JUND (UniProt P17535) as listed: inactive: -0.067	inactive: -0.109	inactive: 0.056	inactive: 0.09	inactive: -0.022	inactive: -0.078	inactive: -0.065	inactive: 0.024	inactive: -0.038	inactive: -0.04
KHDC4 (UniProt Q7Z7F0) as listed: inactive: -0.017	inactive: -0.003	inactive: -0.078	inactive: -0.034	inactive: 0.009	inactive: 0.028	inactive: 0.08	inactive: 0.01	inactive: -0.155	inactive: -0.052
